For at least one entry, the source does not settle the construct or the ends of the probe. Whether high values mean tight binding is not given here for every scale.
Biological target: HIC1 (hypermethylated in cancer 1) (Homo sapiens) (UniProt Q14526)
Test: EMSA
Conditions: 1 mM zinc acetate, LI-COR EMSA kit 1x binding buffer, 1x DTT/Tween-20, 1 ug poly(dI-dC), 0.05% NP-40, 1 mM zinc acetate, 435 ng HIC1, 50 fmol DNA, 20 min room temperature, 6% TBE gel, commercial protein, protein details: c-Myc/DDK (FLAG), label: 5' IRDye700, scale: band intensity

Sequences of proteins named here, by UniProt entry; tags and fusion partners are left off. A change or cut given only in a name is not applied to a line headed by its entry.
UniProt Q14526: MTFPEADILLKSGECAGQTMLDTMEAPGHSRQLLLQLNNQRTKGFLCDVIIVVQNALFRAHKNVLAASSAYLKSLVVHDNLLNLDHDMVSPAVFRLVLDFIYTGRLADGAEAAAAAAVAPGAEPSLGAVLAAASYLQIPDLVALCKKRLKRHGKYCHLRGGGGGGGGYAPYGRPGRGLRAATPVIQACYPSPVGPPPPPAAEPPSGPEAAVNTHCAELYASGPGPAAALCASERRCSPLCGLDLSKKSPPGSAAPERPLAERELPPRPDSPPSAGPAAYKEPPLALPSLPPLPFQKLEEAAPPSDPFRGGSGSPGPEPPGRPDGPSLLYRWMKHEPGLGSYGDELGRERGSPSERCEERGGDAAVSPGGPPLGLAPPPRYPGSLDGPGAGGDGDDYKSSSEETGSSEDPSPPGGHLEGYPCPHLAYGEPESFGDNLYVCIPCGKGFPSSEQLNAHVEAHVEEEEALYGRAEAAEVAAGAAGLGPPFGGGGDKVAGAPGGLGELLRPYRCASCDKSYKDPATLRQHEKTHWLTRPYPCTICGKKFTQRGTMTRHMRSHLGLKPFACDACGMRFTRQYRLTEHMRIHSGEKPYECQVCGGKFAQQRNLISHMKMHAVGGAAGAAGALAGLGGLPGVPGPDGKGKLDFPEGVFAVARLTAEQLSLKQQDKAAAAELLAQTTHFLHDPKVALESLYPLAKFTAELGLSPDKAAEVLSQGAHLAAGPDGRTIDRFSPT

GCCAGACCCCGCCTCCTGGCACAGAGGACCACGCCCGGC (double strand) [rs7594852-C 39 bp oligo]
binding signal (complex supershifted by anti-DDK antibody in separate lane): 204

GCCAGACCCCGCCTCCTGGTACAGAGGACCACGCCCGGC (double strand) [rs7594852-T 39 bp oligo]
binding signal (P = 0.013 vs C allele): 76.6

Source: PMC6718389
